Our source for the binding values is article PMC10599278.

Chains of the proteins cited; added tags and fusions are not shown.
UniProt O00425: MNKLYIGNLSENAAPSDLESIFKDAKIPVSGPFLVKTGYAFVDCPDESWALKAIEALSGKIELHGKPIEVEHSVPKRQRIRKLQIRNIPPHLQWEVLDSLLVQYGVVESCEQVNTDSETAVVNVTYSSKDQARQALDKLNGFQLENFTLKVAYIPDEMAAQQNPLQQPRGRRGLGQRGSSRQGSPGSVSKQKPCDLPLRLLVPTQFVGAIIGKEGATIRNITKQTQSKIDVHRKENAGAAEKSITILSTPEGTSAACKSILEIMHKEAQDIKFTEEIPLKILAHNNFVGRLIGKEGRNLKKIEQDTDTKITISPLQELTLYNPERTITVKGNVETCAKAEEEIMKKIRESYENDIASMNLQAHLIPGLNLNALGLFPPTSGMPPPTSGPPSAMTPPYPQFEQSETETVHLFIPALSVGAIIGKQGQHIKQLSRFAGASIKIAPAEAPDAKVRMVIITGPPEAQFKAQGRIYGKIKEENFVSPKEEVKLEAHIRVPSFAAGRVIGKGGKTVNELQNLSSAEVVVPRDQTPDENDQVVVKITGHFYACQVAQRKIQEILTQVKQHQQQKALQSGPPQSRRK
UniProt Q9Y4X5: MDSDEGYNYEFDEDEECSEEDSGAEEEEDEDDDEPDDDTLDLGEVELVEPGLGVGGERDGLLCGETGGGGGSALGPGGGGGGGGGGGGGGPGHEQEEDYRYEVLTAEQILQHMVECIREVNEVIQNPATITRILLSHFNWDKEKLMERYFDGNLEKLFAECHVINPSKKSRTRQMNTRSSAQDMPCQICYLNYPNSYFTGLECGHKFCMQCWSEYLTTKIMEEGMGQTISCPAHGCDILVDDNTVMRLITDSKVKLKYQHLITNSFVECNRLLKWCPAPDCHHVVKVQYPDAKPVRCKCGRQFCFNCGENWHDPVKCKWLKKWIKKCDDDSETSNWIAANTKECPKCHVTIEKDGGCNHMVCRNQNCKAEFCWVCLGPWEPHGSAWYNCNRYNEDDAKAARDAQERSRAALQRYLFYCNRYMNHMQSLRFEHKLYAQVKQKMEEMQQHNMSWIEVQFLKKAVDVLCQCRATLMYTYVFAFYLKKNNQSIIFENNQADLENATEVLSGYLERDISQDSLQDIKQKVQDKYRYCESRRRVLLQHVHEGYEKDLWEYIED
UniProt Q7Z6Z7: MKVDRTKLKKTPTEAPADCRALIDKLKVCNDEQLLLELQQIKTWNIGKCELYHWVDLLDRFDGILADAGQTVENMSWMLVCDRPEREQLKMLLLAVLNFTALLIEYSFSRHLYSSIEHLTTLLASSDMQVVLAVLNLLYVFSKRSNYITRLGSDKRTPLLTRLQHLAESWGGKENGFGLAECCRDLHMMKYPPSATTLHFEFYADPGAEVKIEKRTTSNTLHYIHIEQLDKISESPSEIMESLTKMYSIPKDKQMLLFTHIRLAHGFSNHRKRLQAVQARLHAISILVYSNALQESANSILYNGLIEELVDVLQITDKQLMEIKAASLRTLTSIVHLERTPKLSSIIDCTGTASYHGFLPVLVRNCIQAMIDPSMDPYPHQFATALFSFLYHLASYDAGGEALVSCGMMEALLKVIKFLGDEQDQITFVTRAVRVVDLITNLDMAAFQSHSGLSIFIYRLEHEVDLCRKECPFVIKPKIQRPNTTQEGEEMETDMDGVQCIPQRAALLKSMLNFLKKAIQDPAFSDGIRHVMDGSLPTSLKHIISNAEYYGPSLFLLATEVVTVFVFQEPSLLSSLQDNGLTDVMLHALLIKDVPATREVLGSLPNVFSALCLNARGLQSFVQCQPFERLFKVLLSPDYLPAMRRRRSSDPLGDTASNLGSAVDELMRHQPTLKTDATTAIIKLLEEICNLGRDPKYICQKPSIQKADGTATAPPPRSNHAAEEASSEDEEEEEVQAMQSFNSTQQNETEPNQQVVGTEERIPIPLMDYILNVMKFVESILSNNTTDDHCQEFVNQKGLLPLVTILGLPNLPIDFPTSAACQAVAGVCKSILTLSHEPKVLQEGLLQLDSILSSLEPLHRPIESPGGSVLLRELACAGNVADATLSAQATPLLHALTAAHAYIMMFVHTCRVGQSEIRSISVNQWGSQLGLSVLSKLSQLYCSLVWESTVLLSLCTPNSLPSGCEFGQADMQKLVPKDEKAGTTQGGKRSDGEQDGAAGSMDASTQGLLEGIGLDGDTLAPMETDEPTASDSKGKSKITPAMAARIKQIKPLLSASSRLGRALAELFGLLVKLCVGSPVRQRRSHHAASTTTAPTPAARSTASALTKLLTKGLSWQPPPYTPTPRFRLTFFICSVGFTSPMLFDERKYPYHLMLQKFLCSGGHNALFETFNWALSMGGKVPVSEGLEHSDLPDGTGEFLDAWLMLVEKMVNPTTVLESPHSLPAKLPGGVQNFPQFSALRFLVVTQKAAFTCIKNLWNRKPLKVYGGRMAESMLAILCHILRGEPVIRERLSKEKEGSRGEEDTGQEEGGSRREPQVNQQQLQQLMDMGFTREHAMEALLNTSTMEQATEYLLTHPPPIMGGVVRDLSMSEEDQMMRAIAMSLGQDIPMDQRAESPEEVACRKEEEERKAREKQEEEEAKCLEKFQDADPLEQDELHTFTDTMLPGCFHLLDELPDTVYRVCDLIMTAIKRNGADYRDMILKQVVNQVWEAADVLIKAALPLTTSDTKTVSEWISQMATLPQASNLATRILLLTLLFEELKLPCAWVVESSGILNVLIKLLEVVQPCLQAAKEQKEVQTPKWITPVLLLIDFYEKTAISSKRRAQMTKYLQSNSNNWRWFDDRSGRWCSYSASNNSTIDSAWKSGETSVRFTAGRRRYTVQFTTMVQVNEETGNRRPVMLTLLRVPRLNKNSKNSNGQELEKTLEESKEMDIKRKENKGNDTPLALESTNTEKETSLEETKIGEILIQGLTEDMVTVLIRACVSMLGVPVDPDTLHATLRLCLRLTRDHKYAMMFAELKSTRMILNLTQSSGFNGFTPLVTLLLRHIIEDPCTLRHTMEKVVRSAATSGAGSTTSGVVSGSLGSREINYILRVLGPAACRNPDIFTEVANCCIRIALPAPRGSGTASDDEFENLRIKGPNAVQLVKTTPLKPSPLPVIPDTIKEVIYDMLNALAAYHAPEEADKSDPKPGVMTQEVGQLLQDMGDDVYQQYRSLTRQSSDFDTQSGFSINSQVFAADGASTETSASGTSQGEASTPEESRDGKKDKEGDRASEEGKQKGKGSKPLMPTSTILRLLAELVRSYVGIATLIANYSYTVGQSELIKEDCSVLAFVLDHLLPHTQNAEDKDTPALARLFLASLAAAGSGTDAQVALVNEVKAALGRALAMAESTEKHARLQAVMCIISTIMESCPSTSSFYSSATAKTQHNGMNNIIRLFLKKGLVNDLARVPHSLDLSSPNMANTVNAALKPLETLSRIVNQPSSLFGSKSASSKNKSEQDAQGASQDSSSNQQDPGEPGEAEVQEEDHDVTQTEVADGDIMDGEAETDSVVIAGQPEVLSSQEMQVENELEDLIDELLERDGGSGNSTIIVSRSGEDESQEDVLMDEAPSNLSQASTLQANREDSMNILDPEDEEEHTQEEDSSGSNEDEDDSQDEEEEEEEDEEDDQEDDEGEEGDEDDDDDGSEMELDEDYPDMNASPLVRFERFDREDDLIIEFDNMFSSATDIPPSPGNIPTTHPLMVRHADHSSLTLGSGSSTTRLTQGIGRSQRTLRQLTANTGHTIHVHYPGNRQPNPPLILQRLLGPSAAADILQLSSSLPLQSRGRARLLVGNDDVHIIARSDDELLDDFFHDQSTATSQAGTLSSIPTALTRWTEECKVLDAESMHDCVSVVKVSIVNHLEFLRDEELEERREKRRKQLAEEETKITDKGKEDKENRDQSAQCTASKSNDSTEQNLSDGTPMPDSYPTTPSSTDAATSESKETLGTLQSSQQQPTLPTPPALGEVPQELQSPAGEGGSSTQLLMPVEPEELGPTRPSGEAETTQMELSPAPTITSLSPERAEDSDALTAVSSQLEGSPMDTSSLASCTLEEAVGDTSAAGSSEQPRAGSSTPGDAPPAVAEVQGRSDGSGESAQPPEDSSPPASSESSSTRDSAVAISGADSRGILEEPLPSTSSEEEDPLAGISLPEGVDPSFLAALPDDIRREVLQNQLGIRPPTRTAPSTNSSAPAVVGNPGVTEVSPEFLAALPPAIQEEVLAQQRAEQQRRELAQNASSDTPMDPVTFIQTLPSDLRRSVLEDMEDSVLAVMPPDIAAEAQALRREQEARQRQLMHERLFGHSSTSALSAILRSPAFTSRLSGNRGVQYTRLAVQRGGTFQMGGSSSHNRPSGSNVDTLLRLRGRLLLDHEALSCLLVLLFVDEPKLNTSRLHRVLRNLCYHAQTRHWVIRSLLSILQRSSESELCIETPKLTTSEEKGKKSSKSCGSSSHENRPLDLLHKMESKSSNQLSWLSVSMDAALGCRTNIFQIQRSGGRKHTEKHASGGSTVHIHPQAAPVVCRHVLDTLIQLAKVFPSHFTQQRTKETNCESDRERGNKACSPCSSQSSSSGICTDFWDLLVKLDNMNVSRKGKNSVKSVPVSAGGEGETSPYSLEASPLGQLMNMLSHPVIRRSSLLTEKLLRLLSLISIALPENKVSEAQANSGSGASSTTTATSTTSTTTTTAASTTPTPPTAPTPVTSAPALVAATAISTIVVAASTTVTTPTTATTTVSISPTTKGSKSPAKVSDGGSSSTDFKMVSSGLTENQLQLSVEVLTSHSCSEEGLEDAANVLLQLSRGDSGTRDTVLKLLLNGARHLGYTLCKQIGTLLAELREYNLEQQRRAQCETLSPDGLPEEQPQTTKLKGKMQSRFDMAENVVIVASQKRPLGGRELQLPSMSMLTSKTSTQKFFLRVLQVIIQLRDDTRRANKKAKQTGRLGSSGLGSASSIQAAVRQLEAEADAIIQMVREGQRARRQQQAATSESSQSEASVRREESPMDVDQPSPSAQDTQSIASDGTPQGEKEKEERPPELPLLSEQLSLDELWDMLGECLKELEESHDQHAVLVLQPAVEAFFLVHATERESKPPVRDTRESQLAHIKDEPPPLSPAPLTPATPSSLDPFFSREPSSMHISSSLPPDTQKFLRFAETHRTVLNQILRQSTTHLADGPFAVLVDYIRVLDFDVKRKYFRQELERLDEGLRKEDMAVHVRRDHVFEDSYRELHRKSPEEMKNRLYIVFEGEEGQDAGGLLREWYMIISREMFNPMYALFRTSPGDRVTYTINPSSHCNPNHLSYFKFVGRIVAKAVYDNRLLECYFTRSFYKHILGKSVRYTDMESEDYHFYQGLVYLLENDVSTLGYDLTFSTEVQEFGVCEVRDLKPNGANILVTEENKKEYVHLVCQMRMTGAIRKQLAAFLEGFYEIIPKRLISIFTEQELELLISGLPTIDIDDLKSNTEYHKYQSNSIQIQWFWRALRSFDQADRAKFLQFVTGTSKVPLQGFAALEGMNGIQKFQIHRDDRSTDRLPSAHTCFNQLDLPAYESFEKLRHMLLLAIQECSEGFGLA

These are yes or no findings as the source states them, for the method shown. Binding seen in cells or lysates may run through a third protein. A yes stands for co-enrichment or nearness to the bait. Other partners may have been found.

For the experiment, the target named is GFP-IGF2BP3 (human) (UniProt O00425). In words: affinity purification with mass spectrometry; HeLa cells co-transfected with GFP-IGF2BP3, Flag-Parkin and HA-ubiquitin; lysates immunoprecipitated with GFP-Trap Agarose; LC-MS/MS.
As to “ARIH1 (from UniProt Q9Y4X5 1-557) (enzyme)”, the binding result is on record as “binds”. For “HECTD1 (from UniProt Q9ULT8 1-2610) (enzyme)” the value was “binds”; for “HUWE1 (from UniProt Q7Z6Z7 1-4374) (enzyme)”, “binds”.
